# Test results taken from paper PMC4912613, “A broad analysis of resistance development in the malaria parasite” (Nature Communications, 2016).
# What was measured:
# Type in all cases: cell-based, Plasmodium falciparum
# [1] = tested on: CYTbQi (cytb G33A, parent Dd2); assay: Cross-resistance EC50 assay, CYTbQi; details: SYBR green 72 hour assay; synchronized parasites; 384-well format; strain CYTbQi (Dd2 parent)
# In short: (§1)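 EC50 fold shifts were derived from blood-stage growth assays run in parallel on mutant and parent strains within one laboratory. Growth was measured either by tritiated hypoxanthine uptake (48 h) or SYBR Green I staining (72 h).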
# [2] = tested on: GNF449-R2 (PfATP4 I203L and P990R, parent Dd2); assay: Cross-resistance EC50 assay, GNF449-R2; details: SYBR green 72 hour assay, asynchronized parasites, 96-well or 1536-well format
# In short: as §1
# [3] = tested on: PfCRT-Q352R (parent Dd2); assay: Cross-resistance EC50 assay, PfCRT-Q352R; details: SYBR green 72 hour assay; synchronized parasites; 384-well format; strain PfCRT:Q352R (Dd2 parent)
# In short: as §1
# [4] = tested on: Dd2; assay: Cross-resistance EC50 assay, Dd2 parent; details: SYBR green 72 hour assay
# [5] = tested on: 3D7; assay: Cross-resistance EC50 assay, 3D7 parent / sensitive strain; details: for 3D7-C9-WT (PARENT) Average Hill Slope: strain 3D7-C9-WT (parent of PfATP4 Mut3)
# In short: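 P. falciparum asexual blood-stage proliferation, parent/sensitive strain of each resistant clone; 48-h assay with rings (0.5% parasitemia, 2.0% haematocrit) in RPMI-1640/5% AlbuMAX, ^3H-hypoxanthine added at 24 h, normalized to no-drug and 2 μM artesunate controls; alternatively 72-h SYBR Green assay (0.3% parasitemia, 4% haematocrit). EC50s from triplicate fits.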
# [6] = asynchronized parasites, 96-well or 1536-well format, Dd2 parent
# [7] = synchronized parasites, 384-well format, strain Dd2 (parent)
# [8] = SYBR green 72 hour assay, asynchronized parasites, 96-well or 1536-well format, 3D7 parent
# [9] = SYBR green 72 hour assay, synchronized parasites, 384-well format, strain 3D7 (parent)
# [10] = hypoxanthine 48-hour assay, synchronized parasites, 96-well format, strain 3D7 (parent)
# [11] = hypoxanthine 48-hour assay, synchronized parasites, 96-well format
SMILES,CYTbQi (Dd2 Parent) Average Hill Slope [1],GNF449-R2 (Dd2 Parent) Average Hill Slope [2],PfCRT:Q352R (Dd2 Parent) Average Hill Slope [3],"Dd2 (PARENT) Average Hill Slope [4, 6]","Dd2 (PARENT) Average Hill Slope [4, 7]","3D7 (PARENT) Average Hill Slope [5, 8]","3D7 (PARENT) Average Hill Slope [5, 9]","3D7 (PARENT) Average Hill Slope [5, 10]","3D7-C9-WT (PARENT) Average Hill Slope [5, 11]"
COC(=O)c1ccc(C2C3=C(O)CC(c4ccc(F)cc4)CC3=Nc3ccccc3N2C(=O)c2ccccc2)cc1 (centres unmarked) [MMV011438],2.44,1.35,2.38,1.54,2.61,1.48,5.33,1.47,1.52
COc1ccc(-c2nc(NC(=O)Cc3ccc4c(c3)OCCO4)sc2C)cc1 [MMV019719],5.22,1.21,3.68,2.04,3.91,1.61,3.85,2.76,1.65
OC(CNC1CCCCC1)Cn1c2ccccc2c2ccccc21 (centres unmarked) [MMV009063],2.99,1.37,2.28,1.11,1.99,1.30,3.27,1.95,–
COc1ccc(C(=O)C2CC2c2ccc(Cl)cc2)cc1 (centres unmarked) [MMV665924],3.13,1.20,2.65,1.51,2.36,0.52,3.13,1.87,1.96
Nc1ncc(-c2cn[nH]c2)cc1-c1nc2ccc(F)cc2[nH]1 [MMV023367],3.96,1.77,5.52,2.10,4.85,3.81,7.31,3.37,1.45
Cc1c(C)n(Cc2ccc(F)cc2)c2ccc(C(=O)NCc3ccco3)cc12 [MMV008149],1.36,0.92,1.09,1.11,1.01,0.90,1.81,1.59,0.75
CC(C)c1cccc(C(NC(=O)C2Cc3ccccc3CN2C(=O)c2cccc(N3CCOCC3)c2)C2CCCC2)c1 (centres unmarked) [MMV028038],3.91,1.20,3.51,1.00,4.03,1.42,2.95,0.95,1.46
O=C(Nc1ccsc1C(=O)NC1CCCCC1)c1ccc(F)cc1 [MMV665939],6.82,2.96,7.36,2.35,7.91,1.15,4.39,2.65,1.01
Cc1ccc(Oc2ncccc2C(=O)Cc2cccc3cccnc23)c(C)c1 [MMV020746],4.79,2.13,3.48,2.74,4.61,1.88,4.67,1.78,3.06
